Results are given in words; binding and its absence hold for the method and conditions named. For part of these data: Binding seen in cells or lysates may run through a third protein. Some results given as binding are weak or reduced against the parent protein; the word gives no strength. For part of these data: Sequences can lack the tags named with a protein.
Key:
[1] = target: T1, FLAG-tagged mini-SLX4 (SLX4 1-758) (mouse) (UniProt Q6P1D7); test: co-IP; anti-FLAG immunoprecipitation from Slx4f3/f3 MEFs expressing FLAG-SLX4 or FLAG-mini-SLX4; western blot
T1 sequence: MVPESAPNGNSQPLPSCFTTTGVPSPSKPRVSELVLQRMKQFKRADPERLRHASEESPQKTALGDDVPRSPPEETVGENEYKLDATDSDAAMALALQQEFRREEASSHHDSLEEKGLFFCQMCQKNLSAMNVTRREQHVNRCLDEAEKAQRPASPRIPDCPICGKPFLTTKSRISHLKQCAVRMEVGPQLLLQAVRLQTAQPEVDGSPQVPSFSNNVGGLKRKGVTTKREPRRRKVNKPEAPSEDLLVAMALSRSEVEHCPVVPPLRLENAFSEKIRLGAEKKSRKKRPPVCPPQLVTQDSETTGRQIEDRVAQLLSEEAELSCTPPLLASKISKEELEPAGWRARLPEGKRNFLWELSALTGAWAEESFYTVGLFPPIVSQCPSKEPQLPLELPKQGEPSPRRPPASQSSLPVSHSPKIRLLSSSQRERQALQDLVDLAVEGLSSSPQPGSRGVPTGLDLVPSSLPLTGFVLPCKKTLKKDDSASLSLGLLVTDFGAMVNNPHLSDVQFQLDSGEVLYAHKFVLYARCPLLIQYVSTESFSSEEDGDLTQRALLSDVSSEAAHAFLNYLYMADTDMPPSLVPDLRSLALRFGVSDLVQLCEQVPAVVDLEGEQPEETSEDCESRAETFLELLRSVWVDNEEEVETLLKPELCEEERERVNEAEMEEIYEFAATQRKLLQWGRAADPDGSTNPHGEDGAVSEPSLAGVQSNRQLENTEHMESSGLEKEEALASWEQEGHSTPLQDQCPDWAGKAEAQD

[2] = target: Full-length FLAG-tagged SLX4 (mouse) (UniProt Q6P1D7); test: as above
[3] = target: T2, XPF-ERCC1 with XPF D688A (XE DA) (UniProt Q9QZD4); test: co-purification of a complex expressed in insect cells; complex expressed in insect cells and purified in several steps; Coomassie gel and western blot of the purified complexes
T2 sequence 1: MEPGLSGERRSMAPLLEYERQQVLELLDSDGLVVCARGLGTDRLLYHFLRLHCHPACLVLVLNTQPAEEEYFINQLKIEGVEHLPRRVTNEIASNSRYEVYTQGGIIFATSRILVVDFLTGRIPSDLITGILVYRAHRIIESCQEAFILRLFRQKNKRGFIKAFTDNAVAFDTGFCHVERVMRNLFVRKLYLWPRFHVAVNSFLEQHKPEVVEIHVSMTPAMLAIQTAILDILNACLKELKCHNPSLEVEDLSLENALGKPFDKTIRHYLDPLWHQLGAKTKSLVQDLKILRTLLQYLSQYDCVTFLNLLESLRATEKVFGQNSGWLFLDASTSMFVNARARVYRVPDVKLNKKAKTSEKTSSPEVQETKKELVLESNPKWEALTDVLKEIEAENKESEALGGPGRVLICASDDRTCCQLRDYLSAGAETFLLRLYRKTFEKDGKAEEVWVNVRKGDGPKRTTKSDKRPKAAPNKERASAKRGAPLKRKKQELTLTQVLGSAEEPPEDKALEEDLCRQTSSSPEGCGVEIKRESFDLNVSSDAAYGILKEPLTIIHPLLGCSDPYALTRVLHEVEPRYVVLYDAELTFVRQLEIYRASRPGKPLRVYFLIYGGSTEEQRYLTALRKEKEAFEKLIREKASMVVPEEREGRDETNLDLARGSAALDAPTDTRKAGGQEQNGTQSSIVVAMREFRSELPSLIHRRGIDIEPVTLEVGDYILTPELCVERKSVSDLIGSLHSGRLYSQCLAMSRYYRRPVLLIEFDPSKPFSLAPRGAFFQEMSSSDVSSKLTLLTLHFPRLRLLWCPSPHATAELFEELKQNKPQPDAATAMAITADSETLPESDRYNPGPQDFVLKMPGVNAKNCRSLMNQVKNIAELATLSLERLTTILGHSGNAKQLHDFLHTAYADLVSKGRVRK
T2 sequence 2: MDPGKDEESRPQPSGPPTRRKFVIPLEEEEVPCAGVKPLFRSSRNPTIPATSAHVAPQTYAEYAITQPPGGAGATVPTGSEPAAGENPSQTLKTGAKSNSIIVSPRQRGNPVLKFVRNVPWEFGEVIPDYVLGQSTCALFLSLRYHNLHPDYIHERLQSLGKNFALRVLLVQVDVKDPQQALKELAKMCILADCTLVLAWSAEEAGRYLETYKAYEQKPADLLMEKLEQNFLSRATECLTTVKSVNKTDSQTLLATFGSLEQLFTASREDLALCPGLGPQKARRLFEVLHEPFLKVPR

[4] = target: T3, XPF-ERCC1 with XPF R690S (XE RS) (UniProt Q9QZD4); test: as above
T3 sequence 1: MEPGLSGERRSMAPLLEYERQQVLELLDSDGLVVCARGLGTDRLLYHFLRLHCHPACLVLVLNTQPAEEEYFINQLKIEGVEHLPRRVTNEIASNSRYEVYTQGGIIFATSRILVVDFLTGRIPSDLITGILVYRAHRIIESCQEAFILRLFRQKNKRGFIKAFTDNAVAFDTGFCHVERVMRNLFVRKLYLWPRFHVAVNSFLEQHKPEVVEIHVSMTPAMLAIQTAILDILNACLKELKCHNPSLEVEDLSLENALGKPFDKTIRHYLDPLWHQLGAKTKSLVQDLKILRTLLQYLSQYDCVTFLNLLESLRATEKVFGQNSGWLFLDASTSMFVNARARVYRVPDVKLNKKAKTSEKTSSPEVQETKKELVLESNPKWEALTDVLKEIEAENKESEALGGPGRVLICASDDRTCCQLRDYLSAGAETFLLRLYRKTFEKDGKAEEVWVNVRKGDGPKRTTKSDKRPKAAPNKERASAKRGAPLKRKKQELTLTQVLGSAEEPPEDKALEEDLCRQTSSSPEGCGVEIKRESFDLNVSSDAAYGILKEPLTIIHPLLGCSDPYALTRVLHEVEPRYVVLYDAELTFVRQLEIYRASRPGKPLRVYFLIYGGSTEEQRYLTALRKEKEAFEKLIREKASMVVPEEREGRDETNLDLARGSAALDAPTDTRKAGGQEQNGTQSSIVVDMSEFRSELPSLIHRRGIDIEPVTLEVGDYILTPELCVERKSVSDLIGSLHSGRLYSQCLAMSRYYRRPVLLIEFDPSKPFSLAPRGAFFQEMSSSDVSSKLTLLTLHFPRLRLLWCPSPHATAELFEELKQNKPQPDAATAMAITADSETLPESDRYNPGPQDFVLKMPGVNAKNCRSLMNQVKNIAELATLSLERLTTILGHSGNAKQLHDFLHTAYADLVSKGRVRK
T3 sequence 2: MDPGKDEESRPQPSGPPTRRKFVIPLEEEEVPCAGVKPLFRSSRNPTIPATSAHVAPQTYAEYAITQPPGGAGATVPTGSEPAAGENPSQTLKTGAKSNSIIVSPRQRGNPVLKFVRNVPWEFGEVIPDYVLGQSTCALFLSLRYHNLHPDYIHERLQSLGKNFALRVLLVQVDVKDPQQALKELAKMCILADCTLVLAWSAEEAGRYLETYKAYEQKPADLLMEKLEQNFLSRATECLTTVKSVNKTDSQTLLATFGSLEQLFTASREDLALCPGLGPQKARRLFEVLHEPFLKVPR

[5] = target: T4, XPF-ERCC1 nuclease (XE), recombinant (UniProt Q9QZD4 1-917; P07903 1-298); test: as above
T4 sequence (looked up) 1: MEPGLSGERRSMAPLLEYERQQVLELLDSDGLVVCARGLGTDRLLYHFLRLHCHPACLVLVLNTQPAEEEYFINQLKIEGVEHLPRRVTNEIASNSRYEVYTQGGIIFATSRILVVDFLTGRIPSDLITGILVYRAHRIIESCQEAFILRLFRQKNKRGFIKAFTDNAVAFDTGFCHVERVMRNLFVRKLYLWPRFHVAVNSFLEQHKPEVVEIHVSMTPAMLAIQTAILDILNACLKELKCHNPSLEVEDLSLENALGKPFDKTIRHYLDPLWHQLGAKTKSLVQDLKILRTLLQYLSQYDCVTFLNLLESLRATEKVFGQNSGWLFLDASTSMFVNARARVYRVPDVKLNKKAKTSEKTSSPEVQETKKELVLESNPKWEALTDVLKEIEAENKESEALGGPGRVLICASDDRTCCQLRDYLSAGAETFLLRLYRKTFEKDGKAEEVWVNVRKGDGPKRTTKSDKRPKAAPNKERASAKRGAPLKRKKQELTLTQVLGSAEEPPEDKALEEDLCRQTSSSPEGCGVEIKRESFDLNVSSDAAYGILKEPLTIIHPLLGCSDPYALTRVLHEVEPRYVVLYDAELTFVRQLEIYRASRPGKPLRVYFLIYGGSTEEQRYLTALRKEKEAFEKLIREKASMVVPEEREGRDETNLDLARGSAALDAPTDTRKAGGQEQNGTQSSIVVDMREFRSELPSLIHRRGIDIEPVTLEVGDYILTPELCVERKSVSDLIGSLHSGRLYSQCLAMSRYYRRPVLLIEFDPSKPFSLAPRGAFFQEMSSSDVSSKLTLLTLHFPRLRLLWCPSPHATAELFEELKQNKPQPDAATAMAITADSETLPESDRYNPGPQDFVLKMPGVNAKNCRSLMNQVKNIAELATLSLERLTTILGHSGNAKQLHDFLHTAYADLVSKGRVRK
T4 sequence (looked up) 2: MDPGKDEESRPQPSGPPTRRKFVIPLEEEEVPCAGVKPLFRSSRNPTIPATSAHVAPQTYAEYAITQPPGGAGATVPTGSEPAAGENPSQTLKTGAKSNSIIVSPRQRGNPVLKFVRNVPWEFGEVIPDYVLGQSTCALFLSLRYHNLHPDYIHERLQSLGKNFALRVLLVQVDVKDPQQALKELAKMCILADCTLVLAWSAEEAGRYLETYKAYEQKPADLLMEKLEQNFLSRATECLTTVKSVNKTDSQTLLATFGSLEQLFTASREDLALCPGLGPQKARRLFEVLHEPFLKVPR

[6] = target: T4, XPF-ERCC1 nuclease (XE), recombinant; test: SEC; analytical gel filtration of the purified SXE complex, with Coomassie gels of the fractions; both purified

Measured: binding

B1: endogenous XPF-ERCC1 (complex, UniProt Q9QZD4 1-917; P07903 1-298)
chain 1: MEPGLSGERRSMAPLLEYERQQVLELLDSDGLVVCARGLGTDRLLYHFLRLHCHPACLVLVLNTQPAEEEYFINQLKIEGVEHLPRRVTNEIASNSRYEVYTQGGIIFATSRILVVDFLTGRIPSDLITGILVYRAHRIIESCQEAFILRLFRQKNKRGFIKAFTDNAVAFDTGFCHVERVMRNLFVRKLYLWPRFHVAVNSFLEQHKPEVVEIHVSMTPAMLAIQTAILDILNACLKELKCHNPSLEVEDLSLENALGKPFDKTIRHYLDPLWHQLGAKTKSLVQDLKILRTLLQYLSQYDCVTFLNLLESLRATEKVFGQNSGWLFLDASTSMFVNARARVYRVPDVKLNKKAKTSEKTSSPEVQETKKELVLESNPKWEALTDVLKEIEAENKESEALGGPGRVLICASDDRTCCQLRDYLSAGAETFLLRLYRKTFEKDGKAEEVWVNVRKGDGPKRTTKSDKRPKAAPNKERASAKRGAPLKRKKQELTLTQVLGSAEEPPEDKALEEDLCRQTSSSPEGCGVEIKRESFDLNVSSDAAYGILKEPLTIIHPLLGCSDPYALTRVLHEVEPRYVVLYDAELTFVRQLEIYRASRPGKPLRVYFLIYGGSTEEQRYLTALRKEKEAFEKLIREKASMVVPEEREGRDETNLDLARGSAALDAPTDTRKAGGQEQNGTQSSIVVDMREFRSELPSLIHRRGIDIEPVTLEVGDYILTPELCVERKSVSDLIGSLHSGRLYSQCLAMSRYYRRPVLLIEFDPSKPFSLAPRGAFFQEMSSSDVSSKLTLLTLHFPRLRLLWCPSPHATAELFEELKQNKPQPDAATAMAITADSETLPESDRYNPGPQDFVLKMPGVNAKNCRSLMNQVKNIAELATLSLERLTTILGHSGNAKQLHDFLHTAYADLVSKGRVRK
chain 2: MDPGKDEESRPQPSGPPTRRKFVIPLEEEEVPCAGVKPLFRSSRNPTIPATSAHVAPQTYAEYAITQPPGGAGATVPTGSEPAAGENPSQTLKTGAKSNSIIVSPRQRGNPVLKFVRNVPWEFGEVIPDYVLGQSTCALFLSLRYHNLHPDYIHERLQSLGKNFALRVLLVQVDVKDPQQALKELAKMCILADCTLVLAWSAEEAGRYLETYKAYEQKPADLLMEKLEQNFLSRATECLTTVKSVNKTDSQTLLATFGSLEQLFTASREDLALCPGLGPQKARRLFEVLHEPFLKVPR
binds: [1] | [2]

B2: Recombinant mini-SLX4 (1-758) (domain or fragment, mouse, UniProt Q6P1D7 1-758, looked up)
chain: MVPESAPNGNSQPLPSCFTTTGVPSPSKPRVSELVLQRMKQFKRADPERLRHASEESPQKTALGDDVPRSPPEETVGENEYKLDATDSDAAMALALQQEFRREEASSHHDSLEEKGLFFCQMCQKNLSAMNVTRREQHVNRCLDEAEKAQRPASPRIPDCPICGKPFLTTKSRISHLKQCAVRMEVGPQLLLQAVRLQTAQPEVDGSPQVPSFSNNVGGLKRKGVTTKREPRRRKVNKPEAPSEDLLVAMALSRSEVEHCPVVPPLRLENAFSEKIRLGAEKKSRKKRPPVCPPQLVTQDSETTGRQIEDRVAQLLSEEAELSCTPPLLASKISKEELEPAGWRARLPEGKRNFLWELSALTGAWAEESFYTVGLFPPIVSQCPSKEPQLPLELPKQGEPSPRRPPASQSSLPVSHSPKIRLLSSSQRERQALQDLVDLAVEGLSSSPQPGSRGVPTGLDLVPSSLPLTGFVLPCKKTLKKDDSASLSLGLLVTDFGAMVNNPHLSDVQFQLDSGEVLYAHKFVLYARCPLLIQYVSTESFSSEEDGDLTQRALLSDVSSEAAHAFLNYLYMADTDMPPSLVPDLRSLALRFGVSDLVQLCEQVPAVVDLEGEQPEETSEDCESRAETFLELLRSVWVDNEEEVETLLKPELCEEERERVNEAEMEEIYEFAATQRKLLQWGRAADPDGSTNPHGEDGAVSEPSLAGVQSNRQLENTEHMESSGLEKEEALASWEQEGHSTPLQDQCPDWAGKAEAQD
notes: mouse SLX4, residues 1-758; source: insect cells, purified (in complex with XPF-ERCC1, or alone)
binds: [3] | [4] | [5] | [6]

Source: PMC4017094, “Mouse SLX4 Is a Tumor Suppressor that Stimulates the Activity of the Nuclease XPF-ERCC1 in DNA Crosslink Repair” (Molecular Cell, 2014)
